PubChem BioAssay AID743121 | NCATS | 2013
The deposit covers about 26,000 reagents; shown is a part drawn at random. 167 of all reagents (0.63%) were called active. 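Calls are per gene from RSA p-values that are not deposited; an individual active-marked siRNA can sensitise only weakly.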 Entries without a mark were called inactive. Reagents against one gene are numbered here. Further read-outs or replicates are left out here. No sequences are given here.

Aim: 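Partners whose loss is lethal together with topoisomerase I blockade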 (primary screen)
Cell system: MDA-MB-231 cells, a human breast cancer line
Knock-down reagent: single siRNA against human genes, 20 nM siRNA (0.8 pmol per well)
Duration: 120 h (drug added 48 h after transfection, read 72 h later)
Conditions: camptothecin 20 nM (about EC30) for 72 h; vehicle 0.1% DMSO in parallel plates
Measurement: 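Cell viability by ATP luminescence (CellTiter-Glo) as % of non-targeting siRNA wells, and the log2 ratio of viability without drug over viability with camptothecin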
Reading the numbers: log2 vehicle/camptothecin viability: higher = stronger sensitisation to camptothecin; viability with camptothecin: higher = more viable cells
Units: viability with camptothecin in % of control
Active means: 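Each gene scored by redundant siRNA activity (RSA) over its individual siRNA ratios; a gene is called active at p < 0.001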

For ADAMTS15 (ADAM metallopeptidase with thrombospondin type 1 motif 15) #1, what does the deposit list?
log2 vehicle/camptothecin viability: 0.311; viability with camptothecin: 76.5

With ADAMTS15 (ADAM metallopeptidase with thrombospondin type 1 motif 15) #2, what does the deposit list?
log2 vehicle/camptothecin viability: -0.423; viability with camptothecin: 81.8

With ADAMTS15 (ADAM metallopeptidase with thrombospondin type 1 motif 15) #3, what was measured?
log2 vehicle/camptothecin viability: -0.285; viability with camptothecin: 74.2

What did the screen give for ADAMTS15 (ADAM metallopeptidase with thrombospondin type 1 motif 15) #4?
log2 vehicle/camptothecin viability: 0.22; viability with camptothecin: 47.4

What is on record for KLK10 (kallikrein related peptidase 10) #1?
log2 vehicle/camptothecin viability: -0.299; viability with camptothecin: 78.7

Which result is listed for KLK10 (kallikrein related peptidase 10) #2?
log2 vehicle/camptothecin viability: -0.102; viability with camptothecin: 36.7

For KLK10 (kallikrein related peptidase 10) #3, how do the results read?
log2 vehicle/camptothecin viability: 0.376; viability with camptothecin: 35

For KLK10 (kallikrein related peptidase 10) #4, what does the deposit list?
log2 vehicle/camptothecin viability: 0.161; viability with camptothecin: 29.6

Which result is listed for GPRC5D (G protein-coupled receptor class C group 5 member D) #1?
log2 vehicle/camptothecin viability: -0.113; viability with camptothecin: 92.4

With GPRC5D (G protein-coupled receptor class C group 5 member D) #2, how do the results read?
log2 vehicle/camptothecin viability: 0.234; viability with camptothecin: 41.8

How did the screen score GPRC5D (G protein-coupled receptor class C group 5 member D) #3?
log2 vehicle/camptothecin viability: -0.276; viability with camptothecin: 45.4

Which result is listed for GPRC5D (G protein-coupled receptor class C group 5 member D) #4?
log2 vehicle/camptothecin viability: -0.164; viability with camptothecin: 49.4

What is on record for UBAP2L (ubiquitin associated protein 2 like) #1?
log2 vehicle/camptothecin viability: 0.167; viability with camptothecin: 62.7

Which result is listed for UBAP2L (ubiquitin associated protein 2 like) #2?
log2 vehicle/camptothecin viability: 0.125; viability with camptothecin: 59.3

Which result is listed for UBAP2L (ubiquitin associated protein 2 like) #3?
log2 vehicle/camptothecin viability: -0.0247; viability with camptothecin: 88.7

How did the screen score GPR161 (G protein-coupled receptor 161) #1?
log2 vehicle/camptothecin viability: 0.125; viability with camptothecin: 62.9

For GPR161 (G protein-coupled receptor 161) #2, what was measured?
log2 vehicle/camptothecin viability: -0.359; viability with camptothecin: 92.5

With GPR161 (G protein-coupled receptor 161) #3, what does the deposit list?
log2 vehicle/camptothecin viability: -0.126; viability with camptothecin: 72.2

For GPR161 (G protein-coupled receptor 161) #4, what was measured?
log2 vehicle/camptothecin viability: 0.0633; viability with camptothecin: 86.6

Which result is listed for SMC1A (structural maintenance of chromosomes 1A) #1?
log2 vehicle/camptothecin viability: 0.423; viability with camptothecin: 83.4

With SMC1A (structural maintenance of chromosomes 1A) #2, how do the results read?
log2 vehicle/camptothecin viability: 0.642; viability with camptothecin: 33.7

With SMC1A (structural maintenance of chromosomes 1A) #3, what was measured?
log2 vehicle/camptothecin viability: 0.000688; viability with camptothecin: 78.9

With SMC1A (structural maintenance of chromosomes 1A) #4, how do the results read?
log2 vehicle/camptothecin viability: -0.268; viability with camptothecin: 62.5

Targets listed so far whose target name starts with K or k:
KLK10 (kallikrein related peptidase 10) #1 | log2 vehicle/camptothecin viability: -0.299; viability with camptothecin: 78.7
KLK10 (kallikrein related peptidase 10) #2 | log2 vehicle/camptothecin viability: -0.102; viability with camptothecin: 36.7
KLK10 (kallikrein related peptidase 10) #3 | log2 vehicle/camptothecin viability: 0.376; viability with camptothecin: 35
KLK10 (kallikrein related peptidase 10) #4 | log2 vehicle/camptothecin viability: 0.161; viability with camptothecin: 29.6

Next entries follow:
With PILRA (paired immunoglobin like type 2 receptor alpha) #1, what does the deposit list?
log2 vehicle/camptothecin viability: -0.253; viability with camptothecin: 130

Which result is listed for PILRA (paired immunoglobin like type 2 receptor alpha) #2?
log2 vehicle/camptothecin viability: -0.0974; viability with camptothecin: 106

With PILRA (paired immunoglobin like type 2 receptor alpha) #3, how do the results read?
log2 vehicle/camptothecin viability: 0.241; viability with camptothecin: 66.8

With PILRA (paired immunoglobin like type 2 receptor alpha) #4, what does the deposit list?
log2 vehicle/camptothecin viability: -0.243; viability with camptothecin: 111

With PRDX4 (peroxiredoxin 4) #1, what does the deposit list?
log2 vehicle/camptothecin viability: -0.44; viability with camptothecin: 103

What is on record for PRDX4 (peroxiredoxin 4) #2?
log2 vehicle/camptothecin viability: -0.091; viability with camptothecin: 121

With PRDX4 (peroxiredoxin 4) #3, what does the deposit list?
log2 vehicle/camptothecin viability: -0.383; viability with camptothecin: 61.4

For NQO1 (NAD(P)H quinone dehydrogenase 1) #1, what was measured?
log2 vehicle/camptothecin viability: -0.156; viability with camptothecin: 95.6

Which result is listed for NQO1 (NAD(P)H quinone dehydrogenase 1) #2?
log2 vehicle/camptothecin viability: -0.275; viability with camptothecin: 78.6

How did the screen score NQO1 (NAD(P)H quinone dehydrogenase 1) #3?
log2 vehicle/camptothecin viability: -0.198; viability with camptothecin: 63.1

For NQO1 (NAD(P)H quinone dehydrogenase 1) #4, what was measured?
log2 vehicle/camptothecin viability: 0.136; viability with camptothecin: 84.2

How did the screen score PPAT (phosphoribosyl pyrophosphate amidotransferase) #1?
log2 vehicle/camptothecin viability: -0.479; viability with camptothecin: 86.2

With PPAT (phosphoribosyl pyrophosphate amidotransferase) #2, how do the results read?
log2 vehicle/camptothecin viability: -1.19; viability with camptothecin: 64

What did the screen give for PPAT (phosphoribosyl pyrophosphate amidotransferase) #3?
log2 vehicle/camptothecin viability: -2; viability with camptothecin: 93.5

With PPAT (phosphoribosyl pyrophosphate amidotransferase) #4, what was measured?
log2 vehicle/camptothecin viability: -0.7; viability with camptothecin: 61.3
